According to PubChem BioAssay AID1273 (Columbia University Molecular Screening Center, 2008):
Some of the results follow. Some results for these compounds are left out of this collection, so the calls shown say nothing about other tests.

test: insulin gene promoter suppression in islet cells – imaging, TRM-6 cells (human fetal islet line), eGFP reporter, cell count, primary screen (AID 1273;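 also: cells exposed to compound for 48 h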); conditions: measured here: cell count, toxicity, at 2 µM, reporter expression induced with tamoxifen

SMILES	normalized cell count [%]
O=C(OC1CN2CCC1CC2)C(CO)(c1ccccc1)c1ccccc1 (stereo not given)	111
CN(C)c1cccc(C(=O)NCC2(N(C)C)CCCCC2)c1	144
CN(C)C1CCCC1OC(=O)C(O)(c1ccccc1)c1ccccc1 (stereo not given)	141
CCN1CCCC(OC(=O)C2(O)c3ccccc3C=Cc3ccccc32)C1 (stereo not given)	46
CC(C)N1C(=O)CC2(CCN(CCOC(=O)C(O)(c3ccccc3)c3ccccc3)CC2)C1=O	104
